Measured values reported in article PMC4762897.
These are yes or no findings as the source states them, for the method shown. Binding seen in cells or lysates may run through a third protein.

Sequences of proteins named here, by UniProt entry; tags and fusion partners are left off. A change or cut given only in a name is not applied to a line headed by its entry.
UniProt Q00899: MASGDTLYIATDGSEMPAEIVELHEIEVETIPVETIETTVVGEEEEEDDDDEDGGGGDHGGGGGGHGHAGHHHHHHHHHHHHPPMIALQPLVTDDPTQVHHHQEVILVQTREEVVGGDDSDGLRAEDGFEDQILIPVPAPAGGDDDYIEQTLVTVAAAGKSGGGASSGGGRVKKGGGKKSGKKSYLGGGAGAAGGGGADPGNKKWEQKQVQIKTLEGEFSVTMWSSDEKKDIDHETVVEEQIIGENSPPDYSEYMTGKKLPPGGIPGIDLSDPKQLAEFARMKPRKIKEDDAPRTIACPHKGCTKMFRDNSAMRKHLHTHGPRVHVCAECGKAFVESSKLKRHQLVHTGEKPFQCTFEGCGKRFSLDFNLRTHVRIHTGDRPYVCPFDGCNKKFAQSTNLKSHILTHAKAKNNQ
UniProt P97471: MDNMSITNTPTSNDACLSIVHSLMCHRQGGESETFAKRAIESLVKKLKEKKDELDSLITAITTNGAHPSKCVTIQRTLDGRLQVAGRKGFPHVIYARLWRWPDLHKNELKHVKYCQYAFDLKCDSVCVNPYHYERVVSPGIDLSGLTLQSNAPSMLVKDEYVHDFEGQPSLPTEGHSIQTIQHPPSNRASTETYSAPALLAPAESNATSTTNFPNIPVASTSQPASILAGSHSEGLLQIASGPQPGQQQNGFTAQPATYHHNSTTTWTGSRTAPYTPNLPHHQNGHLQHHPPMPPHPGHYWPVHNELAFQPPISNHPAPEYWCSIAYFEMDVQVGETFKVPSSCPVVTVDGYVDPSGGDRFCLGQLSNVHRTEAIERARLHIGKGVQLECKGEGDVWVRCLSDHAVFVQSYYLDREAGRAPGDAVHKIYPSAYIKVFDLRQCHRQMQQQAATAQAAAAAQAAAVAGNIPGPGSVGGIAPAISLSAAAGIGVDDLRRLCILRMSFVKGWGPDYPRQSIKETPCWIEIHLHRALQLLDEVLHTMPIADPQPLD
UniProt Q8BUN5: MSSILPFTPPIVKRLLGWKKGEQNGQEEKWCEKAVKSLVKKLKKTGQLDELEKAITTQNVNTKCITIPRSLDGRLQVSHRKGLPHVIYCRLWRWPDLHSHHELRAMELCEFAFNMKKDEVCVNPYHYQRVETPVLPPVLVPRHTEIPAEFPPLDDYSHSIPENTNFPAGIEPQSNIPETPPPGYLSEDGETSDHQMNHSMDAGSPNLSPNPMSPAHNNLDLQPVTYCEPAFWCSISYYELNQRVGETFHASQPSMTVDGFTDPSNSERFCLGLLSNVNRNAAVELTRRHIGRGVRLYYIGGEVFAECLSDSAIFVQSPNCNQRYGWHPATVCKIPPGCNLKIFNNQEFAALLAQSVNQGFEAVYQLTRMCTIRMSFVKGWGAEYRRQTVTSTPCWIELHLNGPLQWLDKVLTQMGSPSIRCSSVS

B1: Foxp3 (protein, UniProt Q99JB6 1-417)
chain: MPNPRPAKPMAPSLALGPSPGVLPSWKTAPKGSELLGTRGSGGPFQGRDLRSGAHTSSSLNPLPPSQLQLPTVPLVMVAPSGARLGPSPHLQALLQDRPHFMHQLSTVDAHAQTPVLQVRPLDNPAMISLPPPSAATGVFSLKARPGLPPGINVASLEWVSREPALLCTFPRSGTPRKDSNLLAAPQGSYPLLANGVCKWPGCEKVFEEPEEFLKHCQADHLLDEKGKAQCLLQREVVQSLEQQLELEKEKLGAMQAHLAGKMALAKAPSVASMDKSSCCIVATSTQGSVLPAWSAPREAPDGGLFAVRRHLWGSHGNSSFPEFFHNMDYFKYHNMRPPFTYATLIRWAILEAPERQRTLNEIYHWFTRMFAYFRNHPATWKNAIRHNLSLHKCFVRVESEKGAVWTVDEFEFRKKR

molecular target: YY1 deletion mutant lacking the spacer domain (mouse) (UniProt Q00899); test: co-IP; HEK293T transfected with Smad3-, Smad4- or Foxp3-expression vector together with FLAG-tagged YY1 or YY1 domain mutants; lysates immunoprecipitated with anti-FLAG; immunoblot with anti-Smad3, anti-Smad4, anti-Foxp3 or anti-FLAG

binding, no binding:
Smad4 (from UniProt P97471 1-551), Smad3 (from UniProt Q8BUN5 1-425), B1
